# From the supplement of paper PMC8728848
# The other results are listed elsewhere or left out.
# B1: Thrombomodulin Lectin (Mus musculus) (protein)
# chain: LSALAKLQPTGSQCVEHECFALFQGPATFLDASQACQRLQGHLMTVRSSVAADVISLLLSQSSMDLGPWIGLQLPQGCDDPVHLGPLRGFQWVTGDNHTSYSRWARPNDQTAPLCGPLCVTVSTATEAAPGEPAWEEKPCETETQGFLCEFYFTASCRVDPIPVREDTKEEEGAGEPPVSPTPGSPTGPPSARPVLDEPRVPITQNPCPPLKECPPCAAPDLEGGPSVFIFPPKIKDVLMISLSPMVTCVVVDVSEDDPDVQISWFVNNVEVHTAQTQTHREDYNSTLRVVSALPIQHQDWMSGKAFACAVNNRALPSPIEKTISKPRGPVRAPQVYVLPPPAEEMTKKEFSLTCMITGFLPAEIAVDWTSNGRTEQNYKNTATVLDSDGSYFMYSKLRVQKSTWERGSLFACSVVHEGLHNHLTTKTISRSLGK
# How the values were obtained:
# Assay in all cases: glycan array binding signal (z-score within array); higher = stronger binding
# Conditions in all cases: glycan notation: IUPAC condensed, linker removed
# Gal6S(b1-4)Glc6S = molecular target: Gal6S(b1-4)Glc6S
# In short: (§1)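 From the Consortium for Functional Glycomics database, 3228 arrays were curated, keeping only those whose protein sequence was available. Binding is given as a within-array Z-score averaged across arrays sharing a protein sequence and across linkers. Negative Z-scores can be read as non-binding.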
# Gal6S(b1-4)GlcNAc = molecular target: Gal6S(b1-4)GlcNAc
# In short: as §1
# Gal6S(b1-4)GlcNAc6S = molecular target: Gal6S(b1-4)GlcNAc6S
# In short: as §1
# GalNAc(a1-3)Gal = molecular target: GalNAc(a1-3)Gal
# In short: as §1
# GalNAc(a1-3)GalNAc = molecular target: GalNAc(a1-3)GalNAc
# In short: as §1
# [1] = molecular target: GalNAc(a1-3)GalNAc(b1-3)Gal(a1-4)Gal(b1-4)Glc
# In short: as §1
# [2] = molecular target: GalNAc(a1-3)GalNAc(b1-3)Gal(a1-4)Gal(b1-4)GlcNAc
# In short: as §1
# GalNAc(b1-3)Gal = molecular target: GalNAc(b1-3)Gal
# In short: as §1
# [3] = molecular target: GalNAc(b1-3)Gal(a1-4)Gal(b1-4)GlcNAc
# In short: as §1
# [4] = molecular target: GalNAc(b1-3)Gal(a1-4)Gal(b1-4)GlcNAc(b1-3)Gal(b1-4)Glc
# In short: as §1
# [5] = molecular target: GalNAc(b1-3)Gal(a1-6)Gal(b1-4)Glc
# In short: as §1
# GalNAc(b1-3)GalNAc = molecular target: GalNAc(b1-3)GalNAc
# In short: as §1
# GalNAc(b1-3)GlcNAc = molecular target: GalNAc(b1-3)GlcNAc
# In short: as §1
# GalNAc(b1-4)Gal(b1-4)Glc = molecular target: GalNAc(b1-4)Gal(b1-4)Glc
# In short: as §1
# GalNAc(b1-4)GlcNAc = molecular target: GalNAc(b1-4)GlcNAc
# In short: as §1
# [6] = molecular target: GalNAc(b1-4)GlcNAc(b1-2)Man
# In short: as §1
# [7] = molecular target: GalNAc(b1-4)GlcNAc(b1-2)Man(a1-3)[GalNAc(b1-4)GlcNAc(b1-2)Man(a1-6)]Man(b1-4)GlcNAc(b1-4)GlcNAc
# In short: as §1
# [8] = molecular target: GalNAc(b1-4)GlcNAc(b1-3)GalNAc(b1-4)GlcNAc
# In short: as §1
# GalNAc(b1-4)GlcNAc6S = molecular target: GalNAc(b1-4)GlcNAc6S
# In short: as §1
# GalNAc(b1-6)GalNAc = molecular target: GalNAc(b1-6)GalNAc
# In short: as §1
# GalNAc3S(b1-4)GlcNAc = molecular target: GalNAc3S(b1-4)GlcNAc
# In short: as §1
# GalNAc3S(b1-4)GlcNAc3S = molecular target: GalNAc3S(b1-4)GlcNAc3S
# In short: as §1
# [9] = molecular target: GalNAc3S(b1-4)[Fuc(a1-3)]GlcNAc
# In short: as §1
# GalNAc4S6S(b1-4)GlcNAc = molecular target: GalNAc4S6S(b1-4)GlcNAc
# In short: as §1
# GalNAc6S(b1-4)GlcNAc = molecular target: GalNAc6S(b1-4)GlcNAc
# In short: as §1
# Glc(a1-4)Glc = molecular target: Glc(a1-4)Glc
# In short: as §1
# [10] = molecular target: Glc(a1-4)Glc(a1-4)Glc(a1-4)Glc
# In short: as §1
# Glc(a1-6)Glc(a1-6)Glc = molecular target: Glc(a1-6)Glc(a1-6)Glc
# In short: as §1
# [11] = molecular target: Glc(a1-6)Glc(a1-6)Glc(a1-6)Glc
# In short: as §1
# Glc(b1-4)Glc = molecular target: Glc(b1-4)Glc
# In short: as §1
# Glc(b1-6)Glc = molecular target: Glc(b1-6)Glc
# In short: as §1
# GlcA(b1-3)Gal = molecular target: GlcA(b1-3)Gal
# In short: as §1
# GlcA(b1-3)GlcNAc = molecular target: GlcA(b1-3)GlcNAc
# In short: as §1
# GlcA(b1-6)Gal = molecular target: GlcA(b1-6)Gal
# In short: as §1
# [12] = molecular target: GlcA3S(b1-3)Gal(b1-4)GlcNAc(b1-2)Man
# In short: as §1
# [13] = molecular target: GlcA3S(b1-3)Gal(b1-4)GlcNAc(b1-3)Gal(b1-4)Glc
# In short: as §1
# [14] = molecular target: GlcNAc(a1-3)Gal(b1-4)GlcNAc
# In short: as §1
binder,measurement,setting,value
B1,glycan array binding signal (z-score),Gal6S(b1-4)Glc6S,1.87
same,glycan array binding signal (z-score),Gal6S(b1-4)GlcNAc,-1.11
same,glycan array binding signal (z-score),Gal6S(b1-4)GlcNAc6S,-1.89
same,glycan array binding signal (z-score),GalNAc(a1-3)Gal,1.55
same,glycan array binding signal (z-score),GalNAc(a1-3)GalNAc,-0.539
same,glycan array binding signal (z-score),[1],-1.14
same,glycan array binding signal (z-score),[2],-1.14
same,glycan array binding signal (z-score),GalNAc(b1-3)Gal,0.486
same,glycan array binding signal (z-score),[3],0.534
same,glycan array binding signal (z-score),[4],-0.119
same,glycan array binding signal (z-score),[5],-1.12
same,glycan array binding signal (z-score),GalNAc(b1-3)GalNAc,0.517
same,glycan array binding signal (z-score),GalNAc(b1-3)GlcNAc,-0.517
same,glycan array binding signal (z-score),GalNAc(b1-4)Gal(b1-4)Glc,-0.236
same,glycan array binding signal (z-score),GalNAc(b1-4)GlcNAc,-0.625
same,glycan array binding signal (z-score),[6],0.427
same,glycan array binding signal (z-score),[7],0.023
same,glycan array binding signal (z-score),[8],-0.101
same,glycan array binding signal (z-score),GalNAc(b1-4)GlcNAc6S,0.18
same,glycan array binding signal (z-score),GalNAc(b1-6)GalNAc,0.92
same,glycan array binding signal (z-score),GalNAc3S(b1-4)GlcNAc,0.187
same,glycan array binding signal (z-score),GalNAc3S(b1-4)GlcNAc3S,0.538
same,glycan array binding signal (z-score),[9],1.34
same,glycan array binding signal (z-score),GalNAc4S6S(b1-4)GlcNAc,1.6
same,glycan array binding signal (z-score),GalNAc6S(b1-4)GlcNAc,0.468
same,glycan array binding signal (z-score),Glc(a1-4)Glc,0.733
same,glycan array binding signal (z-score),[10],0.317
same,glycan array binding signal (z-score),Glc(a1-6)Glc(a1-6)Glc,-0.53
same,glycan array binding signal (z-score),[11],1.9
same,glycan array binding signal (z-score),Glc(b1-4)Glc,-0.324
same,glycan array binding signal (z-score),Glc(b1-6)Glc,0.351
same,glycan array binding signal (z-score),GlcA(b1-3)Gal,-0.555
same,glycan array binding signal (z-score),GlcA(b1-3)GlcNAc,0.119
same,glycan array binding signal (z-score),GlcA(b1-6)Gal,1.32
same,glycan array binding signal (z-score),[12],-0.496
same,glycan array binding signal (z-score),[13],-1.51
same,glycan array binding signal (z-score),[14],-1.21

# Nothing new here: an excerpt of the list.
binder,measurement,setting,value
B1,glycan array binding signal (z-score),GalNAc(b1-6)GalNAc,0.92
same,glycan array binding signal (z-score),GalNAc3S(b1-4)GlcNAc,0.187
same,glycan array binding signal (z-score),GalNAc3S(b1-4)GlcNAc3S,0.538
same,glycan array binding signal (z-score),[9],1.34
same,glycan array binding signal (z-score),GalNAc4S6S(b1-4)GlcNAc,1.6
same,glycan array binding signal (z-score),GalNAc6S(b1-4)GlcNAc,0.468
same,glycan array binding signal (z-score),Glc(a1-4)Glc,0.733
same,glycan array binding signal (z-score),[10],0.317
